The source of these data is patent US20090175873A1.

By UniProt entry, the sequences of proteins in these tests, tags left out. Where a name states a change or a piece, a line headed by the entry shows the natural chain unless it says otherwise.
UniProt P06756: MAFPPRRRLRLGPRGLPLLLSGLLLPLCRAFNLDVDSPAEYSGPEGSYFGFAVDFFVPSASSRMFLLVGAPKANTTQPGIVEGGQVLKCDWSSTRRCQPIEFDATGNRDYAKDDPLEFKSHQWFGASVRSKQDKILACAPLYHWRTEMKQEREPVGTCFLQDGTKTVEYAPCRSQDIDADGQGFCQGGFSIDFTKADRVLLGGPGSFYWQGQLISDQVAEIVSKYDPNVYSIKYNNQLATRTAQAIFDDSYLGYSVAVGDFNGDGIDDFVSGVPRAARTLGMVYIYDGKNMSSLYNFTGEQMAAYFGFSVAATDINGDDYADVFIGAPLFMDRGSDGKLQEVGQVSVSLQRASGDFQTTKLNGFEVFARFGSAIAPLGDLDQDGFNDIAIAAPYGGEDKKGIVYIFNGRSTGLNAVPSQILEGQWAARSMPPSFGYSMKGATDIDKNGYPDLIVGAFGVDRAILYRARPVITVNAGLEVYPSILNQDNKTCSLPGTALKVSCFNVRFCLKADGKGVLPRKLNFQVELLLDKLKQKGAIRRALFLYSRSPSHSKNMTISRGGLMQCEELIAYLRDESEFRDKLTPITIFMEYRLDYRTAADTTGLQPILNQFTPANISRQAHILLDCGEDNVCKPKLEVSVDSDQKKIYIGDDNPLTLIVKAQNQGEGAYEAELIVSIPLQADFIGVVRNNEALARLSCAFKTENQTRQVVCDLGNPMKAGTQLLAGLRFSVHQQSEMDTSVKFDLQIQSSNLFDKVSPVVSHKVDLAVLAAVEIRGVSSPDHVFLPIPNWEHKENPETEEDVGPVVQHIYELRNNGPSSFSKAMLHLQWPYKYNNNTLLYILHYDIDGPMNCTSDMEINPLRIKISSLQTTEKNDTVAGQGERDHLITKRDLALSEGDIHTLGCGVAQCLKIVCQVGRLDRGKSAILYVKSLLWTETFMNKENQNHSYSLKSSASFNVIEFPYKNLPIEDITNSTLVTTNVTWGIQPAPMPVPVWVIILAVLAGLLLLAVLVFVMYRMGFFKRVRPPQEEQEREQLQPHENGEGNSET
UniProt P05106: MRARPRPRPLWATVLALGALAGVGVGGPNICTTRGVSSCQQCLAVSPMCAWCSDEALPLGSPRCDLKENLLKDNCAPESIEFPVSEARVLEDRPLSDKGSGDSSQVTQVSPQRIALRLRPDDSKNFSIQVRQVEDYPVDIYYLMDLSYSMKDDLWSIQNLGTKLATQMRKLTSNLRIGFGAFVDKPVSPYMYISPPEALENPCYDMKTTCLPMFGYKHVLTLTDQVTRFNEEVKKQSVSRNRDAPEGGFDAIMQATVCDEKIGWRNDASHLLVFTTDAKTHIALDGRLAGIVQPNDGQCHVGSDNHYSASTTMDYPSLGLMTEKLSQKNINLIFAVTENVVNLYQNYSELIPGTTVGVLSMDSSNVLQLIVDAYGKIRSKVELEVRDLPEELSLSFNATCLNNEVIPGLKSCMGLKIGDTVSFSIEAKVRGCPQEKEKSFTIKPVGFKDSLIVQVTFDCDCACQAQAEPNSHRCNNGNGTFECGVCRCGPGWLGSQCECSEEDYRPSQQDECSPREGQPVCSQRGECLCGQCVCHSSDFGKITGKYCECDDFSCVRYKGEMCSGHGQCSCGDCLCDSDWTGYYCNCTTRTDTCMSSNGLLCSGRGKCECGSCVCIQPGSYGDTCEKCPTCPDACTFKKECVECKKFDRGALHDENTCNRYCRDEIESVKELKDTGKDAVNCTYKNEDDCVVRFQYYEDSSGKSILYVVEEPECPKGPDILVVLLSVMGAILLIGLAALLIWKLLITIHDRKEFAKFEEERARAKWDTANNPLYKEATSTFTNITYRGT
UniProt P11087: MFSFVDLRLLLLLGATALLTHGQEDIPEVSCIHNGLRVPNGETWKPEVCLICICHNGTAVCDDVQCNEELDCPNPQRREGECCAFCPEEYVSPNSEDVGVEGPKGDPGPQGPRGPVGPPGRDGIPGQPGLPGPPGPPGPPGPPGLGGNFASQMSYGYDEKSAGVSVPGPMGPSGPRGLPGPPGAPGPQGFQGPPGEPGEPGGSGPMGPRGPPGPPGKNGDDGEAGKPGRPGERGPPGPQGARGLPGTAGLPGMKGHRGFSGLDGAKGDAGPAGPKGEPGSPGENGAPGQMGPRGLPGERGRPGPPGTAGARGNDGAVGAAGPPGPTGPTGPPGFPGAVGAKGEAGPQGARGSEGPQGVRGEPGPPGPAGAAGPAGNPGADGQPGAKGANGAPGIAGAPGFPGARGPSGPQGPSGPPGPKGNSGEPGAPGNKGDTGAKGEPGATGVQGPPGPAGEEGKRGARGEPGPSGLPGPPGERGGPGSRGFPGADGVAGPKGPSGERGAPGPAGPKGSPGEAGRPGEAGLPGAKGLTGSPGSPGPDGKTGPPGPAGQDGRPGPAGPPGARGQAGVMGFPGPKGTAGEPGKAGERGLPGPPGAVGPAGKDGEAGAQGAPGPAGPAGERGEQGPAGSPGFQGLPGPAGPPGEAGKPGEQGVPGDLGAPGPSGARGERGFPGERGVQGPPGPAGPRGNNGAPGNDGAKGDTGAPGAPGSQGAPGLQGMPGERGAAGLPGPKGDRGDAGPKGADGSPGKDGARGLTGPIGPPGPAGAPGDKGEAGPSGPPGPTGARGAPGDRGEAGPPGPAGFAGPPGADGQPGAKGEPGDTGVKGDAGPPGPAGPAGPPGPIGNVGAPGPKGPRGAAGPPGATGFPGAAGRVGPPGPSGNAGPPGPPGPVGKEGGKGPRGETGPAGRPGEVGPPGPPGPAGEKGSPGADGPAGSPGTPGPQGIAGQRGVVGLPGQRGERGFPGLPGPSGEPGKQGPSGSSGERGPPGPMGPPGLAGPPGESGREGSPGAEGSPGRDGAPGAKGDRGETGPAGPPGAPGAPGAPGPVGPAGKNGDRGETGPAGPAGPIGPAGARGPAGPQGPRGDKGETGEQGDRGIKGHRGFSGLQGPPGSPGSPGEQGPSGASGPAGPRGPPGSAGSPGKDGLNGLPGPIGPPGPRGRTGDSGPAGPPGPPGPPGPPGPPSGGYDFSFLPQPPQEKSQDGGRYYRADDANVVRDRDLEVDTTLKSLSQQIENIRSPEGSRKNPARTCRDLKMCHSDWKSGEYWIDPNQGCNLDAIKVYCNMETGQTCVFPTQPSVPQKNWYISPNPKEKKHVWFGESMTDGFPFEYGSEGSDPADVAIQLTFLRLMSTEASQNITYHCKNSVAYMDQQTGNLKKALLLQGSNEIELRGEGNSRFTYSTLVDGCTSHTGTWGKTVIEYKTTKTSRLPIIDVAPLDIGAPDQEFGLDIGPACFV
UniProt Q01149: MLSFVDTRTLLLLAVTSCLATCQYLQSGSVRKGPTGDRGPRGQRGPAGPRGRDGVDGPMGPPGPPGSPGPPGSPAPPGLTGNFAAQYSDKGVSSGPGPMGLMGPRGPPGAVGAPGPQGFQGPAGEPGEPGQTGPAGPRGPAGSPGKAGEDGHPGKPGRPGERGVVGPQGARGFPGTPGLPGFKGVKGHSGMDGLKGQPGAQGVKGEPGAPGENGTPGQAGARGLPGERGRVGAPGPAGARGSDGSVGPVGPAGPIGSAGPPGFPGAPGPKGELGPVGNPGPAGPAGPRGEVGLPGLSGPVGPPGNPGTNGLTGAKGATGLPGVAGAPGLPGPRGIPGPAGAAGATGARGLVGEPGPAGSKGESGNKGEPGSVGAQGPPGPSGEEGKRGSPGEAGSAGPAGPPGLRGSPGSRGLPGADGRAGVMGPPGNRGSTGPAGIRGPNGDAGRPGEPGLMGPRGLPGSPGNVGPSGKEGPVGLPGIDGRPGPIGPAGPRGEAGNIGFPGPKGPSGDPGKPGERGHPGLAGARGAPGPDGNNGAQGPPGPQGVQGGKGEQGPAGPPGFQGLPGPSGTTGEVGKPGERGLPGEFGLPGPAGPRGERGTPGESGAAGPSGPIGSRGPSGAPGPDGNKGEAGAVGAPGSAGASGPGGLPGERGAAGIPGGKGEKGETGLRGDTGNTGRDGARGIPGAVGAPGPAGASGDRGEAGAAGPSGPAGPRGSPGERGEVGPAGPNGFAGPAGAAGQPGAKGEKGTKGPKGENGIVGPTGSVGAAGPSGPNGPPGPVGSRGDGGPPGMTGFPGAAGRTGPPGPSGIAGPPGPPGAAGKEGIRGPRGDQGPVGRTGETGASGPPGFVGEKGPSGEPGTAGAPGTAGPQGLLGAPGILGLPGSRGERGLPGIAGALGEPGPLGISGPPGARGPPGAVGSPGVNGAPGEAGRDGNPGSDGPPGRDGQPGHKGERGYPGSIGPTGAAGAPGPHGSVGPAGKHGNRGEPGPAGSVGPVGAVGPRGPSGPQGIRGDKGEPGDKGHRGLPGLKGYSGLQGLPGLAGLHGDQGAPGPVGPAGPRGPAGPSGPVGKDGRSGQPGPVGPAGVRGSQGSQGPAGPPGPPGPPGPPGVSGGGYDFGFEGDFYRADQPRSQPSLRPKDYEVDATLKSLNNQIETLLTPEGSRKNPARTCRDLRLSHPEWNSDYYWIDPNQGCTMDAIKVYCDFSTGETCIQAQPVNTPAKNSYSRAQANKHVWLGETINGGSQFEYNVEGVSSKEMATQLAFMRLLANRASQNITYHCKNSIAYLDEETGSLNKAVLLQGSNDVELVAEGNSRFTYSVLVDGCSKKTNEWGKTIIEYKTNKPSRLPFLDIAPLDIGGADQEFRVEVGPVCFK

For assay [1], the target named is T1, αvβ3 integrin of MDA-MB-231 human mammary carcinoma cells (human) (UniProt P06756+P05106). Briefly: reciprocal co-immunoprecipitation from cell lysates, western blot. For orientation: Immunoblotting shows a protein as a band on a membrane.
The target in assay [2] is T1, αvβ3 integrin of MDA-MB-231 human mammary carcinoma cells (human). Briefly: reciprocal co-immunoprecipitation (anti-legumain and anti-αvβ3 antibodies), western blot.
Assay [3] has the same target. Briefly: co-immunoprecipitation from MDA-MB231 cell lysates with anti-integrin antibodies, western blot.
The target is the same in assay [4]. Description: immunohistochemical double staining of MDA-MB-231 cells with anti-αvβ3 and anti-legumain antibodies.
Another assay addresses collagen I (mouse) (UniProt P11087+Q01149). Description: double immunofluorescence staining of tumour sections (co-localization).

No constants are given. Whether binding was seen depends on the method and setting. For some assays here: Binding seen in cells or lysates may run through a third protein. Some entries that bind do so weakly or less than the wild type.

B1: human legumain (enzyme)
chain: IPIDDPEDGGKHWVVIVAGSNGWYNYRHQADACHAYQIIHRNGIPDEQIVVMMYDDIAYSEDNPTPGIVINRPNGTDVYQGVPKDYTGEDVTPQNFLAVLRGDAEAVKGIGSGKVLKSGPQDHVFIYFTDHGSTGILVFPNEDLHVKDLNETIHYMYKHKMYRKMVFYIEACESGSMMNHLPDNINVYATTAANPRESSYACYYDEKRSTYLGDWYSVNWMEDSDVEDLTKETLHKQYHLVKSHTNTSHVMQYGNKTISTMKVMQFQGMKRKASSPVPLPPVTHLDLTPSPDVPLTIMKRKLMNTN
With B1, the binding result in assay [1], in assay [2], in assay [3] and in assay [4] was “binds” in each case.

B2: mouse legumain (enzyme, UniProt O89017 18-325, looked up)
chain: VPVGVDDPEDGGKHWVVIVAGSNGWYNYRHQADACHAYQIIHRNGIPDEQIIVMMYDDIANSEENPTPGVVINRPNGTDVYKGVLKDYTGEDVTPENFLAVLRGDAEAVKGKGSGKVLKSGPRDHVFIYFTDHGATGILVFPNDDLHVKDLNKTIRYMYEHKMYQKMVFYIEACESGSMMNHLPDDINVYATTAANPKESSYACYYDEERGTYLGDWYSVNWMEDSDVEDLTKETLHKQYHLVKSHTNTSHVMQYGNKSISTMKVMQFQGMKHRASSPISLPPVTHLDLTPSPDVPLTILKRKLLRTN
As for B2, the binding entry with collagen I (mouse) was “binds”.
